PubChem BioAssay AID686938 – Drosophila RNAi Screening Center – 2013
Assay: 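Knock-downs reducing store-operated calcium influx in Drosophila cells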 (primary screen). Cells: Drosophila S2R+ cells. Knock-down reagent: long dsRNA against Drosophila genes, about 0.25 µg dsRNA per well, roughly 10,000 cells. Time to read-out: 5 days of knock-down before the calcium assay. Challenge: thapsigargin (SERCA pump blocker) to empty calcium stores; entry signal taken 4 min after adding it. Read-out: 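Per-well fluo-4 fluorescence in two replicates, unnormalised, measured in resting cells and 4 min after store depletion by the SERCA blocker thapsigargin; ratio of the two present in few wells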. Reading the numbers: calcium entry signal: higher = stronger calcium signal after store depletion; entry to resting ratio: higher = more calcium entry relative to resting level; resting calcium signal: higher = higher resting calcium signal. Call rule: 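Called when the plate z-score of the entry-to-rest ratio, mean of duplicates, falls below −3; wells with low overall dye signal (Fmax z below −2) or more than five off-targets excluded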. Calls: active = strongly reduced calcium entry; inactive = no strong reduction.
In all, the deposit lists about 23,000 reagents; below is a random part of those with a known target gene and a result. Of all reagents, 75 (0.33%) got an active call. 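Raw plate signals without normalisation; calls rest on plate z-scores that were not deposited; ratio present for only 364 wells.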 Reagents against one gene are numbered here. A plus sign joins genes that one reagent is predicted to hit. Not stated in the record: the dose of the treatment.

Target gene	dsRNA no.	calcium entry signal, replicate 1 (fluorescence units)	calcium entry signal, replicate 2 (fluorescence units)	entry to resting ratio	resting calcium signal, replicate 1 (fluorescence units)	resting calcium signal, replicate 2 (fluorescence units)	activity call
r-cup	1	3.64e7	5.07e7		1.98e7	2.22e7	inactive
thetaTry	1	2.77e7	4.63e7		1.37e7	1.82e7	inactive
tbrd-2	1	3.19e7	3.04e7		1.42e7	1.48e7	inactive
CG11192	1	4.55e7	4.11e7		3.66e7	2.18e7	inactive
CG33775	1	4.26e7	3.79e7		2.02e7	1.58e7	inactive
CG11700	1	1.72e7	9.32e6		1.57e7	8.79e6	inactive
CG15544	1	4.21e7	6.09e7		2.13e7	2.52e7	inactive
CG13840	1	5.23e7	3.79e7		2.40e7	1.62e7	inactive
CG13840	2	5.86e7	3.70e7		2.96e7	1.56e7	inactive
pon	1	3.33e7	4.44e7		1.74e7	1.95e7	inactive
Nepl6	1	4.23e7	3.09e7		2.27e7	1.69e7	inactive
CG15258	1	4.96e7	3.02e7		2.07e7	1.48e7	inactive
Sbat	1	2.93e7	3.80e7		1.63e7	1.86e7	inactive
Ugt307A1	1	3.36e7	2.88e7		1.67e7	1.29e7	inactive
CG3625	1	1.46e7	2.52e7		7.81e6	1.06e7	inactive
CG3625	2	3.33e7			1.91e7		inactive
CG42694	1	2.91e7	5.68e7		1.42e7	2.27e7	inactive
Zip88E	1	3.96e7	5.46e7		1.91e7	5.86e7	inactive
sing	1	2.93e7	3.32e7		1.62e7	1.53e7	inactive
CG18294 + 825-Oak + CG32214 + 2 more	1	3.42e7	4.54e7		1.66e7	2.23e7	inactive
CG10431	1	4.38e7	5.55e7		2.28e7	2.26e7	inactive
CG14237	1	2.01e7	4.36e7		1.32e7	1.90e7	inactive
CG14237	2	3.22e7	3.93e7		1.81e7	1.63e7	inactive
CG10343	1	2.08e7	3.37e7		1.06e7	1.56e7	inactive
gwl	1	2.22e7	2.51e7		1.12e7	1.12e7	inactive
CysRS-m	1	3.38e7	3.76e7		1.45e7	1.85e7	inactive
CG13042	1	4.75e7	5.44e7		2.04e7	2.43e7	inactive
clos	1	4.90e7	4.11e7		2.30e7	1.86e7	inactive
clos	2	5.06e7	5.07e7		2.53e7	1.79e7	inactive
clos	3	4.04e7	4.91e7		2.06e7	2.24e7	inactive
clos	4	2.42e7	4.41e7		1.17e7	2.04e7	inactive
clos	5	4.54e7	3.40e7		2.31e7	1.45e7	inactive
CG31751	1	2.58e7	4.16e7		1.31e7	1.71e7	inactive
CG31751	2	2.69e7	4.18e7		1.43e7	1.72e7	inactive
BomBc3	1	4.06e7	5.01e7		5.60e7	2.05e7	inactive
Khc	1	3.50e7	3.20e7		1.57e7	1.57e7	inactive
Elba1	1	2.61e7	2.50e7		1.29e7	1.22e7	inactive
CG6908	1	4.05e7	3.83e7		2.06e7	1.97e7	inactive
CG1371	1	4.07e7	3.53e7		1.65e7	1.55e7	inactive
CG17549	1	4.36e7			2.25e7		inactive
Naa15-16	1	6.06e7	3.52e7		2.83e7	1.75e7	inactive
Naa15-16	2	2.90e7	4.27e7		1.47e7	1.89e7	inactive
clumsy	1	5.35e7	4.54e7		2.59e7	2.13e7	inactive

Reformatted: entries from further up
| Target gene | dsRNA no. | calcium entry signal, replicate 1 (fluorescence units) | calcium entry signal, replicate 2 (fluorescence units) | entry to resting ratio | resting calcium signal, replicate 1 (fluorescence units) | resting calcium signal, replicate 2 (fluorescence units) | activity call |
| --- | --- | --- | --- | --- | --- | --- | --- |
| CG18294 + 825-Oak + CG32214 + 2 more | 1 | 3.42e7 | 4.54e7 | – | 1.66e7 | 2.23e7 | inactive |
| CG10431 | 1 | 4.38e7 | 5.55e7 | – | 2.28e7 | 2.26e7 | inactive |
| CG14237 | 1 | 2.01e7 | 4.36e7 | – | 1.32e7 | 1.90e7 | inactive |
| CG14237 | 2 | 3.22e7 | 3.93e7 | – | 1.81e7 | 1.63e7 | inactive |
| CG10343 | 1 | 2.08e7 | 3.37e7 | – | 1.06e7 | 1.56e7 | inactive |
| gwl | 1 | 2.22e7 | 2.51e7 | – | 1.12e7 | 1.12e7 | inactive |
| CysRS-m | 1 | 3.38e7 | 3.76e7 | – | 1.45e7 | 1.85e7 | inactive |
| CG13042 | 1 | 4.75e7 | 5.44e7 | – | 2.04e7 | 2.43e7 | inactive |
| clos | 1 | 4.90e7 | 4.11e7 | – | 2.30e7 | 1.86e7 | inactive |

The results go on:
Target gene	dsRNA no.	calcium entry signal, replicate 1 (fluorescence units)	calcium entry signal, replicate 2 (fluorescence units)	entry to resting ratio	resting calcium signal, replicate 1 (fluorescence units)	resting calcium signal, replicate 2 (fluorescence units)	activity call
Sam-S	1	2.99e7			1.53e7		inactive
Gasz	1	4.86e7	3.88e7		1.99e7	1.89e7	inactive
CG8360	1	3.91e7	3.17e7		1.96e7	1.47e7	inactive
su(f)	1	2.48e7	3.14e7		1.55e7	1.57e7	inactive
CG1231	1	4.04e7	4.11e7		1.95e7	1.67e7	inactive
e	1	4.54e7	3.84e7		2.29e7	1.77e7	inactive
Cad96Cb	1	3.52e7	4.84e7		1.90e7	2.06e7	inactive
Cad96Cb	2	3.91e7	5.14e7		1.99e7	2.06e7	inactive
lncRNA:CR43613	1	4.25e7	3.87e7		1.86e7	2.01e7	inactive
CG15027	1	3.97e7	2.15e7		2.00e7	1.11e7	inactive
CG42594	1	2.30e7	3.90e7		1.55e7	2.18e7	inactive
CG42594	2	3.50e7	4.07e7		1.81e7	1.97e7	inactive
CG42594	3	3.38e7	3.52e7		1.53e7	1.37e7	inactive
CG43187	1	1.72e7	3.77e7		8.07e6	2.25e7	inactive
pr	1	5.58e7			2.64e7		inactive
mtm	1	5.89e7			3.24e7		inactive
PNUTS	1	4.46e7			2.39e7		inactive
PNUTS	2	2.65e7	3.77e7		1.41e7	1.82e7	inactive
bug	1	3.01e7	2.29e7		1.42e7	1.46e7	inactive
ac	1	2.92e7	3.23e7	1.8	1.60e7	1.51e7	inactive
Glut3	1	2.65e7	3.98e7		1.29e7	3.64e7	inactive
Uhg3	1	3.97e7	3.24e7		1.93e7	1.25e7	inactive
Cpr97Eb	1	3.66e7	5.33e7		1.86e7	2.11e7	inactive
ymp	1	2.90e7	2.95e7		1.36e7	1.46e7	inactive
ymp	2	3.09e7	3.86e7		1.42e7	1.75e7	inactive
CG13643	1	3.89e7	5.13e7		1.84e7	2.39e7	inactive
CG13643	2	4.15e7	5.32e7		1.86e7	2.26e7	inactive
Vha14-2	1	5.55e7	3.81e7		2.48e7	1.77e7	inactive
RIOK1	1	4.70e7	3.82e7		3.40e7	1.47e7	inactive
CG5793	1	2.91e7	3.48e7		7.29e7	1.51e7	inactive
ABCB7	1	6.45e7	7.33e7		2.56e7	2.51e7	inactive
atlas	1	2.37e7	2.29e7		1.36e7	1.13e7	inactive
